# Reference: the supplement of paper PMC3334620
# Whole data set: some 33,000 sequences, median “E-score (-0.5 to 0.5)” near -0.0034, cut for the highest 2% near 0.25. The list shows a part of the results.
# Target: T1, Yap3 (UniProt P38749)
# T1 sequence: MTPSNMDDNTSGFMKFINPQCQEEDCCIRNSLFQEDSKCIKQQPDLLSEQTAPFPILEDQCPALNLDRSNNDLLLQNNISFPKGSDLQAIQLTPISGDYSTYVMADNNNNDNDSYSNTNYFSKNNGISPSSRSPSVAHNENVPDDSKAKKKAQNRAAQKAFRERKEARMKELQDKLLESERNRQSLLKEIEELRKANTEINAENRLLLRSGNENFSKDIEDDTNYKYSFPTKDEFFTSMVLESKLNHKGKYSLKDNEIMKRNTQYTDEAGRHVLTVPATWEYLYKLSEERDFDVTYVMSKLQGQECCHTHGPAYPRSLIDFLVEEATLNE
# Experiment: PBM E-score (8-mer binding enrichment) (E-score (-0.5 to 0.5)); higher = stronger / more preferred TF binding
# Settings: protein concentration: 100 nM; construct: GST-full length
# Outline: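 The E-score, a modified Wilcoxon-Mann-Whitney statistic, was computed by the Universal PBM Analysis Suite for every ungapped eight-base word pooled with its reverse complement. Scans behind it were normalised with masliner after bound GST-tagged yeast transcription factors were detected with fluorescent anti-GST. The proteins, at about 100-200 nM, had been applied to universal all-10-mer Agilent arrays made double-stranded by primer extension.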
row,Sequence,PBM E-score
1,AGAGGGCT,-0.204
2,ATGCCATA,0.115
3,AACGTTCT,0.0965
4,ACATCAGG,0.0288
5,CCGTCACC,-0.216
6,GATCGGCA,-0.0139
7,AAAAAAGC,0.145
8,CCGATGGC,-0.0597
9,CACTATCC,0.0794
10,GCTGAATA,0.199
11,AATGGTCA,0.26
12,TCGACAGA,-0.041
13,CGCGACCC,-0.22
14,TGCTAAAA,0.0161
15,CAATTCTG,0.0762
16,AACCCTGT,-0.12
17,GTGTGAAC,0.0569
18,TGGGCACA,-0.0818
19,ATGGGCAA,0.0969
20,ACTTGCAA,0.069
21,AAGGTAAC,0.121
22,TCAGTTCA,0.179
23,ATTGTTTG,0.176
24,TAGATCGA,0.123
25,GGGAGAAC,-0.201

row,Sequence,PBM E-score
1,GATTGCTA,-0.062
2,AGCCCTTG,-0.0902
3,ACGGATTC,0.0415
4,TATGCGGA,0.0888
5,GTATTTCA,0.123
6,CAGGGACA,-0.0295
7,AGCTCGGA,-0.113
8,CGCACGCA,0.0495
9,CCTACTTA,0.0606
10,ACAGACAA,0.285
11,GCTGGCCA,-0.15
12,ATCTACAG,0.105
13,CAATGTGA,0.181
14,GAGCTCAC,-0.0761
15,AAGTCTCT,-0.228
16,AGACGGGC,-0.0414
17,AAATATCG,0.188
18,CGCTGGGA,-0.24
19,ACCATCCT,-0.0941
20,ACCAAGGT,-0.0316
21,TCTGTAAA,0.0633
22,CACCCCAC,0.151
23,CGAGTACG,-0.147
24,CAACTACG,0.0989
25,GAGGCGCC,-0.166

row,Sequence,PBM E-score
1,CGTTGTTA,0.222
2,TAGGAAGA,-0.143
3,AGTGTTGG,0.0523
4,CAAACCCC,-0.151
5,CGTGACGC,0.134
6,AATCAGCT,0.0944
7,AACAGCGT,0.093
8,GTCTCCTA,-0.0882
9,TGCTAGAA,-0.0446
10,CTGAGGCC,-0.124
11,ACAAAGAA,0.257
12,GAATAAGC,-0.0239
13,GATAATGC,0.0805
14,GATCGGAA,-0.0607
15,ATTAACTG,0.241
16,AGCCTTGA,-0.0624
17,AGGCACAG,-0.251
18,ATCGGTAA,0.0893
19,AGTTGCTA,0.193
20,CAGACACA,-0.047
21,CTAGGGTC,-0.279
22,CACGGGCG,-0.0851
23,TCACTCGA,-0.0644
24,CGAATAAA,0.14
25,CGAGGCAA,0.17

row,Sequence,PBM E-score
1,ATCGCTAA,0.113
2,GCACACGA,-0.00656
3,CGAGGGCA,0.0481
4,ATACAAAG,0.109
5,ACTTACCG,0.111
6,GGAGGCAC,-0.121
7,CACCTGTA,-0.153
8,ACTAGACC,0.154
9,AACTCGCC,0.0692
10,ATCGGTGC,0.0156
11,AATCATTC,0.216
12,ACACAACG,0.111
13,AAGGCAGT,-0.0469
14,AAGGCATA,0.114
15,GTGGGTCA,-0.0942
16,AAGCCGTA,0.0253
17,CTGCTAAG,-0.291
18,GAATAGAA,0.125
19,AGACCGAA,-0.0231
20,ACGTACGG,0.0636
21,ACGCATGG,-0.0836
22,GATATCGC,0.104
23,ACTGGGTG,-0.0414
24,AAAACCCA,0.195
25,GCTCGCAA,0.0657

row,Sequence,PBM E-score
1,ACTCTTTC,-0.0504
2,ATCTAGAA,0.0495
3,CCTTCTGA,-0.028
4,CCTCAGGA,-0.184
5,CAGGCCTG,-0.0728
6,CGCAGGGA,-0.258
7,ACTCGATG,0.0263
8,GGATACGA,0.0439
9,ATAAGCCC,-0.159
10,ATGATAAA,0.228
11,CATCTAGG,-0.186
12,CTTCGTAA,0.141
13,CCTAATAA,0.146
14,CCCCAAAA,-0.0376
15,ATATACGG,0.0974
16,CAACACAC,0.0886
17,AAGTCGTC,-0.101
18,CTGCATTC,0.0726
19,GCTACCCA,-0.125
20,AACTGGGA,-0.16
21,AGAGGGTC,-0.324
22,AAAAAGGG,0.125
23,AGGGAAAA,0.0983
24,GACAGAGC,-0.245
25,AGTGTAGA,-0.069

row,Sequence,PBM E-score
1,ATATCAAA,0.244
2,TAGATCTA,0.142
3,AGCCGTTC,-0.178
4,GGTCGGAC,-0.254
5,CGCAAGCG,-0.103
6,TACCCCTA,0.0791
7,ACTGGATG,-0.113
8,AGCCAGGG,-0.289
9,CCATGTGC,-0.0217
10,AATGCAGT,0.0696
11,CCACACCG,-0.1
12,CAGCAGCG,-0.108
13,CCTGCGAC,-0.132
14,AGCCTCTC,-0.228
15,GACGCTCA,-0.105
16,GCAGAAGC,-0.163
17,AGGTCGGG,-0.218
18,AGCTAGCA,-0.11
19,ACAGTTAT,0.181
20,ATGAGGGA,-0.0878
21,AGATGTTG,-0.168
22,AGTTTAAA,0.16
23,GACCCCAA,-0.146
24,GGCCCAAA,-0.0982
25,CAGCGCAA,-0.0782

# Some of the entries above in a different format:
row	Sequence	PBM E-score
14	GAGCTCAC	-0.0761
15	AAGTCTCT	-0.228
16	AGACGGGC	-0.0414
17	AAATATCG	0.188

# A second format for some results above.
row	Sequence	PBM E-score
1	ATATCAAA	0.244
7	ACTGGATG	-0.113
13	CCTGCGAC	-0.132

# Later entries:

row,Sequence,PBM E-score
1,AAGACATG,0.0188
2,GAATGTGC,-0.0245
3,ATCATGAA,0.154
4,ACTGGACC,-0.196
5,CAGTCCAG,-0.244
6,AGATAAAC,0.111
7,CGTAAGCA,0.131
8,CTTGGGGC,-0.195
9,CGGGCCAG,-0.2
10,CCTCGCCG,-0.261
11,CGCGGGCA,0.0869
12,CAGCCTAC,-0.0548
13,CTCTACGC,-0.0435
14,AATTAACT,0.176
15,AAGCGTAT,0.00643
16,AAGCGCTA,0.0946
17,ACGGGCGC,-0.0129
18,AAAACAAG,0.138
19,CGTGCGAG,-0.0121
20,CTTACGAC,0.0511
21,CGCATTAG,-0.0585
22,AAAGTCAG,0.0561
23,GATACGCC,-0.236
24,ACGCGTAC,-0.0646
25,GCCCCTAA,0.0736

# Shown as tab-separated lines: entries from further up.
row	Sequence	PBM E-score
13	CTCTACGC	-0.0435
14	AATTAACT	0.176

# The results go on.

row,Sequence,PBM E-score
1,AGCACGTA,-0.0486
2,CAGTGTGG,-0.0835
3,CAAACTGC,0.0735
4,GCCCGAGC,-0.117
5,ATCGTTAC,0.0229
6,ACAATGTA,0.0691
7,TCACATAA,0.0577
8,ACCACGCT,-0.149
9,ATAGGTTG,-0.0225
10,GAGAGTAA,0.142
11,ACATCGCA,-0.0893
12,CATCAGGC,-0.124
13,GCTTCGTA,-0.0596
14,CAAGTATC,0.039
15,CCCCCATA,-0.287
16,GCCCGTTA,-0.227
17,GCAATACA,0.227
18,CAAGATGC,0.175
19,ATATGCTG,-0.0187
20,ACGAGGTG,-0.00588
21,AGTCACTA,0.0564
22,ATAAAATC,0.207
23,AACTTGAA,0.179
24,CTTTCTGA,0.0382
25,GTCAAAGA,-0.0517

row,Sequence,PBM E-score
1,GCACAGGA,-0.0578
2,AATCCGCT,0.00983
3,AAATCACC,0.235
4,CGTCGGCA,-0.0737
5,CGTCGCAA,0.121
6,CCCTGCGA,-0.179
7,AGGGTGCA,-0.0855
8,CCTACCAA,0.0688
9,CGGCGTGA,-0.0465
10,AGAGTGCT,-0.00235
11,AAGTATTC,0.13
12,CTCGGTTC,-0.245
13,ATCATAAT,0.293
14,CGGCGTTA,-0.065
15,ATTTGGCC,0.0859
16,CAGCTCAA,0.0484
17,AACGCCTT,-0.112
18,GGATATAC,0.127
19,ATAGACAG,0.0681
